Experimental data reported in article PMC12516131.
Results are given in words; binding and its absence hold for the method and conditions named. A result given as binding can be weak or reduced; the word gives no strength. Sequences can lack the tags named with a protein.

What was measured:
[1] = target: T1, MAP65-3–mCherry–8×His (Arabidopsis thaliana) (UniProt Q9FHM4); test: TIRF microscopy microtubule binding assay; 20 nM eGFP–POK2 fragment mixed with MAP65-3–mCherry (0.1–20 nM) in the reaction buffer on unlabelled stabilised microtubules (IRM); ionic strength 170 mM and 70 mM; dual-colour TIRF; both purified
T1 sequence: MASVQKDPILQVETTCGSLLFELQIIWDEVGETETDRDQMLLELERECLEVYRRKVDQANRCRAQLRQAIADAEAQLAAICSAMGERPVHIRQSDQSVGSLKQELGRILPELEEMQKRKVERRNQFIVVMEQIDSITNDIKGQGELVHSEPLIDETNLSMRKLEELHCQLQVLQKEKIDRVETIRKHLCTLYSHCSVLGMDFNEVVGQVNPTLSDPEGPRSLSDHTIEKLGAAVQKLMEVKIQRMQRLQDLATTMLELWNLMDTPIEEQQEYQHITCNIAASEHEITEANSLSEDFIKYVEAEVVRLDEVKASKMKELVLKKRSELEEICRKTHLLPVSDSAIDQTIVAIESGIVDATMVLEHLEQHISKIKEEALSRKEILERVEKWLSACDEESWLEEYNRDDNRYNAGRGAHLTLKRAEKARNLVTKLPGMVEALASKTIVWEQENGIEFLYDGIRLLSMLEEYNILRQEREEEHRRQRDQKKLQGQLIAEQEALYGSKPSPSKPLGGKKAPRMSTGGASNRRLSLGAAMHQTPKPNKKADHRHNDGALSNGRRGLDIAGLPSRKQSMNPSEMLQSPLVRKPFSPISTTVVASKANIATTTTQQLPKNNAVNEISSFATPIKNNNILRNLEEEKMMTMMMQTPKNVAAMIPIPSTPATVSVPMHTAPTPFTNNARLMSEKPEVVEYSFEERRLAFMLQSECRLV

[2] = target: T1, MAP65-3–mCherry–8×His (Arabidopsis thaliana); test: single-molecule dual-colour TIRF microscopy (co-diffusion on microtubules); 1 nM eGFP–POK2^2083–2771 with 0.5 nM MAP65-3–mCherry on unlabelled stabilised microtubules; ionic strength 70–190 mM set with KCl; both purified

| binding [1] | binding [2] | Substance |
| --- | --- | --- |
| no binding (tested: 20 nM) | – | eGFP–POK2^2083–2440 (Arabidopsis thaliana) (domain or fragment) |
| binds | binds | eGFP–POK2^2083–2771–8×His (Arabidopsis thaliana) (domain or fragment) |
| no binding (tested: 20 nM) | – | eGFP–POK2^2510–2677 (Arabidopsis thaliana) (domain or fragment) |
| binds | – | eGFP–POK2^2510–2771 (Arabidopsis thaliana) (domain or fragment) |
